Results taken from patent publication US20190169294A1.
No constants are given. Whether binding was seen depends on the method and setting. Binding can be weak; no strength is given.

What was measured:
[1] = target: bovine LAG-3-EGFP on COS-7 cells (bovine LAG-3 expressing cells) (bovine); test: flow cytometry on bovine LAG-3-EGFP expressing COS-7 cells
[2] = target: water buffalo LAG-3-EGFP on COS-7 cells (water buffalo LAG-3 expressing cells) (water buffalo); test: flow cytometry on water buffalo LAG-3-EGFP expressing COS-7 cells, antibody at 10 ug/ml
[3] = target: water buffalo LAG-3-EGFP on COS-7 cells (water buffalo LAG-3 expressing cells) (water buffalo); test: flow cytometry on water buffalo LAG-3-EGFP expressing COS-7 cells (figure legend)

binding [1]	binding [2]	binding [3]	Binder
binds			rat-bovine chimeric anti-bovine LAG-3 antibody ch2D8 (antibody, IgG1, V domains shown) VH: EVQLVESGGGLVQPKGSLRLSCAASGFDFDTYPMSWVRQAPGKGLDWVASITIKTHNYATLYAASVKERFTISRDDSQSMVYLQMNNLKTEDTALYYCNREDFDYWGQGVMVTVSS VL: DVVLTQTPPTLSATIGQSVSISCRSSQSLLDSDGNTYLNWLLQRPGQSPQLLIYSVSNLESGVPNRFSGSGSETDFTLKISGVEAEDLGVYYCMQATHVPFTFGSGTKLEIKQ
binds	binds	binds	rat anti-bovine LAG-3 monoclonal antibody 2D8 (antibody, V domains shown) VH: EVQLVESGGGLVQPKGSLRLSCAASGFDFDTYPMSWVRQAPGKGLDWVASITIKTHNYATLYAASVKERFTISRDDSQSMVYLQMNNLKTEDTALYYCNREDFDYWGQGVMVTVSS VL: DVVLTQTPPTLSATIGQSVSISCRSSQSLLDSDGNTYLNWLLQRPGQSPQLLIYSVSNLESGVPNRFSGSGSETDFTLKISGVEAEDLGVYYCMQATHVPFTFGSGTKLEIK
